## Primary screen of a compound library

Protein sequences, listed by entry. Tags and fused reporters are not part of them. Residues count along the entry.
UniProt Q4DA54, 1-478: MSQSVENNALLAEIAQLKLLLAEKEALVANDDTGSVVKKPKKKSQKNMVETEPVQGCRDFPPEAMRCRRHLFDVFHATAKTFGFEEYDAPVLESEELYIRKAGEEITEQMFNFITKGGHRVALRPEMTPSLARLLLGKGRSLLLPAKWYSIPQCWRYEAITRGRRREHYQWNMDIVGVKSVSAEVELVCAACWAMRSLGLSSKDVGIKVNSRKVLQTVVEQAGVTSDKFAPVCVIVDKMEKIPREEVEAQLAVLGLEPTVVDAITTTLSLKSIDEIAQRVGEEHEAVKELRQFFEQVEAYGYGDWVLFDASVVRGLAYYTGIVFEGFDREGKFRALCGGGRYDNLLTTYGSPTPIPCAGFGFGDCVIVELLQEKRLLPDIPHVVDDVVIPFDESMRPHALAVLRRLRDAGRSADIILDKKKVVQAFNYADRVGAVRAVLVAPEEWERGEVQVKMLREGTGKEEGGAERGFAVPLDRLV
UniProt P9WPC5, whole entry: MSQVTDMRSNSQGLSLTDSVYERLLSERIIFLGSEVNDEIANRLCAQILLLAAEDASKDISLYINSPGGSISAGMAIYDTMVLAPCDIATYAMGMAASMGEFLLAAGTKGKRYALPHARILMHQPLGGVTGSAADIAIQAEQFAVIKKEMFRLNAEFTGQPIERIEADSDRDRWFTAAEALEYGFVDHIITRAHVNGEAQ
UniProt P9WPC3, whole entry partner: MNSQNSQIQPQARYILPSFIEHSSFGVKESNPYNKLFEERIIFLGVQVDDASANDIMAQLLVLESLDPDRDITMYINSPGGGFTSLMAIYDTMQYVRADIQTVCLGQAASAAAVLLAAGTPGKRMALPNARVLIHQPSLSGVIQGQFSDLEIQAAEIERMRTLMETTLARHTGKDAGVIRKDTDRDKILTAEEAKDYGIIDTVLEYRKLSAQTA
UniProt Q8IDJ8, 1-583: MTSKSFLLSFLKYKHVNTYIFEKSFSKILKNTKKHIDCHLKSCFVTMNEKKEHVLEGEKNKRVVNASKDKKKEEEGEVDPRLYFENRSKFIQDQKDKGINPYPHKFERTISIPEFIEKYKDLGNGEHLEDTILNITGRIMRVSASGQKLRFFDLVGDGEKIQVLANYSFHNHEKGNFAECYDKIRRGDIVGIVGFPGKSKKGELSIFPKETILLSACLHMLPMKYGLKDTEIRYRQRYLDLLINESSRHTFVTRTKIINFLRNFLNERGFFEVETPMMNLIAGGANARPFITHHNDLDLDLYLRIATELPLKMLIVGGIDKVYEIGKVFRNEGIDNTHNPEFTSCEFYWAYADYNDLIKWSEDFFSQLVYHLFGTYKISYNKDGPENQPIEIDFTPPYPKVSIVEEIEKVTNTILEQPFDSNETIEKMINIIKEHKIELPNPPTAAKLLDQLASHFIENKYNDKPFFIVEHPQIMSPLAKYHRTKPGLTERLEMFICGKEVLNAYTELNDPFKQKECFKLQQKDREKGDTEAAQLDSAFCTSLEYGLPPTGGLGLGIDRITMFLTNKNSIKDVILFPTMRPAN
UniProt A4I591, 1-473: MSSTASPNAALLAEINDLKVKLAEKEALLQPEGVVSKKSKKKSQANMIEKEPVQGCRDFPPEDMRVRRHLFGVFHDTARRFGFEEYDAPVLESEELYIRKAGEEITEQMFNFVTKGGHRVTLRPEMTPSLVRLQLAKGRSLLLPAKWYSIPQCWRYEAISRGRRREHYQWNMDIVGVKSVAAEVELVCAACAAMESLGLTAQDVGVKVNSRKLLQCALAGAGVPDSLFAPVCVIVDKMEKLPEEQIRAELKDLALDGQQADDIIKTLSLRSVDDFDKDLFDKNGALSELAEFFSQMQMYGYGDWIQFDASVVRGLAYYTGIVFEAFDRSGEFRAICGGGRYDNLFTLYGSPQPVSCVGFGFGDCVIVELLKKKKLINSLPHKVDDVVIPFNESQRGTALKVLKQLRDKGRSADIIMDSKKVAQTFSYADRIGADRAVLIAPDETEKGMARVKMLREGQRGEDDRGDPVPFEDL

A: 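Histidine-tRNA ligase, Trypanosoma cruzi CL Brener (UniProt Q4DA54). Enzyme assay of histidyl-tRNA synthetase; the read-out is not stated. Tested at 30 µM. Direction is inferred from retests: higher values go with stronger inhibition. Size under these conditions: about 69,000 compounds, about 31 of them at 50% or above in at least one test.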
B: 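ClpP1P2, Mycobacterium tuberculosis (UniProt P9WPC5 and UniProt P9WPC3). Protease assay of ClpP1P2, read by the AMC dye that it sets free. Tested at 50 µM. Higher reads as stronger inhibition, judged from the few compounds that gave an IC50. Most other retested compounds had strongly negative values. About 69,000 compounds were tested under these conditions; 0.015% (about 10) showed 50% or more at least once.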
C: 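Lysine-tRNA ligase, Plasmodium falciparum 3D7 (UniProt Q8IDJ8). Enzyme assay of the cytosolic lysyl-tRNA synthetase in 384-well plates, read by luminescence. Compounds at 30 µM. Higher reads as stronger inhibition, judged from the few compounds that gave an IC50. About 69,000 compounds were tested under these conditions; 0.071% (about 49) showed 50% or more at least once.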
D: 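Histidine-tRNA ligase, Leishmania infantum (UniProt A4I591). Enzyme assay of histidyl-tRNA synthetase; the read-out is not stated. Tested at 30 µM. Higher reads as stronger inhibition (inferred: compounds with an IC50 in retests scored well above the rest). The assay is labelled LdHisRS but filed under L. infantum. About 69,000 compounds were tested under these conditions; 0.6% (about 410) showed 50% or more at least once.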

Each number is a percent effect as filed. How 0% and 100% were set is not recorded. Most values in the screen are low, and negative values occur. Compounds were drawn at random from those tested, without regard to their results.

Result for O=C(c1cccnc1O)N(Cc1ccsc1)CC1CCCO1 (stereo not drawn) was A: 0.8333%; B: 5.577%; C: -1.735%; D: 19.23%. Cc1cc(C)cc(CNc2ccc(C(=O)NC(C)CO)cc2)c1 (stereo not drawn) read A: 5.603%; B: -6.044%; C: 4.806%; D: 18.99%. With CN(CC(=O)NCc1cc2ccccc2o1)S(C)(=O)=O the screen gave A: 6.952%; B: 10.67%; C: 3.538%; D: 5.759%. With CCOCCN1C[C@H](c2cccc(OC)c2)[C@@H](N)C1 the screen gave A: 5.419%; B: -7.491%; C: 8.784%; D: 9.211%. COc1ccccc1OCC(=O)NS(=O)(=O)c1ccc(Cl)cc1F gave A: 1.97%; B: -5.037%; C: -0.3694%; D: 9.589%. Result for NC(=O)C1CCN(C(=O)CCSCc2ccc(Cl)c(Cl)c2)CC1 was A: 5.303%; B: -11.9%; C: -0.1698%; D: 7.042%.

For Cc1cncc(C2CCN(C(=O)c3ccc(-n4cccn4)nc3)CC2)n1 the result was A: 2.632%; B: -9.515%; C: 1.312%; D: 9.929%. With CO[C@@H]1CCN(C(=O)Cc2ccsc2)[C@H]1Cc1cccnc1 the screen gave A: 6.145%; B: 0.8148%; C: 1.092%; D: 5.769%. COc1ccccc1CC1CCN(C(=O)CCN2CCOC2=O)CC1 gave A: 6.897%; B: 1.091%; C: 7.519%; D: 13.16%. O=C(C1CC1)N1CCCC1C1CCN(Cc2ccccc2)CC1 (stereo not drawn) read A: 3.261%; B: -2.379%; C: 3.122%; D: 14.29%. With CCc1nsc(N2CCCN(C(=O)c3ccsc3)CC2)n1 the screen gave A: 1.724%; B: -8.26%; C: 1.553%; D: 11.61%. Result for Cn1c(Cl)cnc1CN1CCCC1c1ccc2c(c1)OCCO2 (stereo not drawn) was A: 7.143%; B: -5.85%; C: -1.616%; D: 1.613%.

CS(=O)(=O)N[C@@H]1CCN(Cc2cccnc2)[C@H]1Cc1ccccc1 gave A: 0%; B: -10.49%; C: 0.3019%; D: -5.882%. With Cc1cc(C2CCCCN2C(=O)c2cccn2C)nc2nccn12 (stereo not drawn) the screen gave A: 2.281%; B: -25.42%; C: 1.519%; D: 4.828%. Result for CC(NCCn1cccn1)c1cc(F)ccc1F (stereo not drawn) was A: 8.247%; B: 1.225%; C: 0.03565%; D: 0%. Result for COCCN1CCN(S(=O)(=O)C2CC2)Cc2cccnc21 was A: 7.778%; B: -5.245%; C: 5.059%; D: 13.21%. With CCOc1cccc2c1OCC(=O)N(c1ccc3c(c1)OCO3)C2 the screen gave A: 10%; B: 4.588%; C: 2.395%; D: 10.87%. CN(Cc1ccc(Cl)cc1)C(=O)Nc1cnn(CC(N)=O)c1 read A: 5.419%; B: -2.84%; C: 7.246%; D: -3.896%.

For O=C(c1ccc2cccc(F)c2n1)N1CCN(CCn2cccc2)CC1 the result was A: 2.976%; B: -8.637%; C: -3.413%; D: 5.376%. Cc1ccc(C)n1-c1c(C(=O)NCC(C)N(C)C)cnn1C (stereo not drawn) gave A: 8.537%; B: -3.503%; C: 9.672%; D: 21.05%. With CCCC(NC(=O)NCc1cccc(N(C)C)n1)c1ccccn1 (stereo not drawn) the screen gave A: 9.938%; B: -25.35%; C: 1.251%; D: 5%. Result for Cc1nn(C)c(C)c1C1COCCN1C(=O)CCc1ccccc1 (stereo not drawn) was A: 0%; B: -5.957%; C: 0%; D: 1.923%. O=C1NCCCN1Cc1nc(-c2ccc(N3CCCCC3)cc2)no1 gave A: 5.952%; B: -10.04%; C: 1.195%; D: 12.4%. With Cc1cc(C)c(CNc2ncnc3ccccc23)c(=O)[nH]1 the screen gave A: -1.587%; B: 6.034%; C: 0.5848%; D: 21.92%.

For CCS(=O)(=O)CC(=O)NC(C)c1ccc(OCCC(C)C)cc1 (stereo not drawn) the result was A: 6.14%; B: 2.928%; C: 8.254%; D: 19.64%. O=C(NCc1nc(C2CC2)no1)N1CCOC(c2ccccc2)C1 (stereo not drawn) gave A: 0.6024%; B: -11.86%; C: 0.1162%; D: 6.593%. Cc1cc(NC(=O)CCN2CCn3c(nnc3C3CC3)C2)no1 read A: 5.042%; B: -18.74%; C: -0.3309%; D: 4.959%. O=C(NC[C@H]1CCCC[C@H]1O)c1cccc2[nH]c(-c3cccs3)nc12 gave A: 11.36%; B: -8.457%; C: 4.158%; D: 17.82%. For COc1ccc(-c2nnc(SC(C)C(=O)NC3CC3)[nH]2)c(OC)c1 (stereo not drawn) the result was A: 1.087%; B: -5.859%; C: 11.29%; D: 20%. Cc1nc(CN2CCO[C@H]3CN(C(=O)c4ccncc4)C[C@H]32)cs1 read A: 6.557%; B: -13.81%; C: 2.592%; D: 10.53%.

CCCNC(c1ccc(F)cc1)c1cccnc1 (stereo not drawn) gave A: 7.317%; B: -6.732%; C: 1.565%; D: 13.25%. Result for NC1CCCc2nc(-c3ccccc3)ncc21 (stereo not drawn) was A: 6.383%; B: 10.62%; C: 9.124%; D: 15.71%. CCc1noc(CN2CCN(CCO)CC2)n1 gave A: 3.529%; B: -11.01%; C: 0.7472%; D: 0%.

The values are deposited in ChEMBL (CHEMBL3988442, “University of Dundee, Small-Polar-MMV Screening Library” (2021)).